Laboratory results taken from the supplement of paper PMC10849652.
This is one part of the list.

Chains of the proteins cited; added tags and fusions are not shown. Lines headed by an entry give the natural chain unless they say otherwise; changes in a name come on top.
UniProt P26639: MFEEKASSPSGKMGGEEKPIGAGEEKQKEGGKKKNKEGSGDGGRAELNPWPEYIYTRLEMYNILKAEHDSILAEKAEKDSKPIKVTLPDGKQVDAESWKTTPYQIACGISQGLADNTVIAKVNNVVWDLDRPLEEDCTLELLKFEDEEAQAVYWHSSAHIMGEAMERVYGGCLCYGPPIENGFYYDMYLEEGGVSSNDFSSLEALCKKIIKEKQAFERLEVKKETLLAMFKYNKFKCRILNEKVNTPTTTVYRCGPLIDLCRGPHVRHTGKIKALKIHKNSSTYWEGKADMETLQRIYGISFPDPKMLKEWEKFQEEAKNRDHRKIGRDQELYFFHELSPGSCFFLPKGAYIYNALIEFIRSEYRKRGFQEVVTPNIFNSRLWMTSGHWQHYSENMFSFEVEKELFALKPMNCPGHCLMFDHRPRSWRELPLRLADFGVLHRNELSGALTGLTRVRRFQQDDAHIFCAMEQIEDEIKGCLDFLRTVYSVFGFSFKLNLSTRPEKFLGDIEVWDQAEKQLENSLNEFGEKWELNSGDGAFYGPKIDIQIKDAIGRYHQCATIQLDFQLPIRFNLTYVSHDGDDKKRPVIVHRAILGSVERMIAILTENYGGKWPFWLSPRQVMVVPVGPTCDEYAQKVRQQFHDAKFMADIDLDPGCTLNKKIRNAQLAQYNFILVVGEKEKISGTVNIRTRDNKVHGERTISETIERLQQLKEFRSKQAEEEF
UniProt Q16594, whole entry, looked up: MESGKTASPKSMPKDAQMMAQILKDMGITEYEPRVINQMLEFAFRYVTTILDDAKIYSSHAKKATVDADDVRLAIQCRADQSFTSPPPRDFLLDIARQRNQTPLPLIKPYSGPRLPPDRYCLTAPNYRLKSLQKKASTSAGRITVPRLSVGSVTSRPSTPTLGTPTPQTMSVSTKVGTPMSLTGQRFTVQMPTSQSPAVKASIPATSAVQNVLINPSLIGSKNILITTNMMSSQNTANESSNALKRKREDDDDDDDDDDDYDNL
UniProt P61956, whole entry, looked up: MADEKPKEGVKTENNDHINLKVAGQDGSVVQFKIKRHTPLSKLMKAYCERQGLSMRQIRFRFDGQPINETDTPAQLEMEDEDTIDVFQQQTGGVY
UniProt P17542, whole entry, looked up: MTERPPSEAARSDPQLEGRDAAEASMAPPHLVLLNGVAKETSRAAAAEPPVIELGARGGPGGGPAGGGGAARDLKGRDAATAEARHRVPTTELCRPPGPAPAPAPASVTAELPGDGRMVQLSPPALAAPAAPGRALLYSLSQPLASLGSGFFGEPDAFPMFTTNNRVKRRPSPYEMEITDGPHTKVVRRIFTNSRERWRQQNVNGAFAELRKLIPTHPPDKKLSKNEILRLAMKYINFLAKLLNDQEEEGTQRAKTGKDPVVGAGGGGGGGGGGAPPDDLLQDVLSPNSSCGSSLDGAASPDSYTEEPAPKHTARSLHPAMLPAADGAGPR
UniProt O00186: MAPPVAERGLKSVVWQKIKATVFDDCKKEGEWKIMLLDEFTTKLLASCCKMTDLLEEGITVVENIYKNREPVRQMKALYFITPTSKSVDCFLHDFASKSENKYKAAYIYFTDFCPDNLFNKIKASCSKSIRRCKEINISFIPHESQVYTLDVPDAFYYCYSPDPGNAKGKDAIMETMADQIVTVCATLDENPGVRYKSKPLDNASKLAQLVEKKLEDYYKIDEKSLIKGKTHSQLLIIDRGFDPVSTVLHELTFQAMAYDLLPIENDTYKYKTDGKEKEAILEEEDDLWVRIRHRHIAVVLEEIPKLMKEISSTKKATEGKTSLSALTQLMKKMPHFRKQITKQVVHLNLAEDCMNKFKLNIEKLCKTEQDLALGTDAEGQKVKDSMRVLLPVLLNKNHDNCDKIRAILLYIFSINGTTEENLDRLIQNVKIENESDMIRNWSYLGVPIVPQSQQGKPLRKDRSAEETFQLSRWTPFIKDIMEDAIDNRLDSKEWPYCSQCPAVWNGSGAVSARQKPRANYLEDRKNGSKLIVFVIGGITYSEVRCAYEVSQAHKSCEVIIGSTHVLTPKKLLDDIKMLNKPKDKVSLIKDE
UniProt P46977: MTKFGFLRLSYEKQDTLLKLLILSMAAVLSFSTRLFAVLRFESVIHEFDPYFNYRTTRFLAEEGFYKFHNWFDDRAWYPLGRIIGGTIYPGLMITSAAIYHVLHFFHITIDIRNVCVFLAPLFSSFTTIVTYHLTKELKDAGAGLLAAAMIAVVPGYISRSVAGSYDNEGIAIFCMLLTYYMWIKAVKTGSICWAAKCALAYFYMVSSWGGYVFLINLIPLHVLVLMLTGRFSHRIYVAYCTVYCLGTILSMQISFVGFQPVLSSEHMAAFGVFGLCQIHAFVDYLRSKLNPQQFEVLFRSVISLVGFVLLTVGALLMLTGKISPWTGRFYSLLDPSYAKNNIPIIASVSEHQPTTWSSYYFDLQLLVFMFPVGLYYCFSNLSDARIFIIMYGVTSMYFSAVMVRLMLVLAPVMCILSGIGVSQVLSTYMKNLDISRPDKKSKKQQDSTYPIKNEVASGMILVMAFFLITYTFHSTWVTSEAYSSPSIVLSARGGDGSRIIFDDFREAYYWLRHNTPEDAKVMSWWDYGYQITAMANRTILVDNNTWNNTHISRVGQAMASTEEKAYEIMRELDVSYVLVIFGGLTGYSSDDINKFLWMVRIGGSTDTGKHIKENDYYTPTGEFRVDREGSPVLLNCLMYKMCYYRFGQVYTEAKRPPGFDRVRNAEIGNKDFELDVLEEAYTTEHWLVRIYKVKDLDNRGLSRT
UniProt Q13148, whole entry, looked up: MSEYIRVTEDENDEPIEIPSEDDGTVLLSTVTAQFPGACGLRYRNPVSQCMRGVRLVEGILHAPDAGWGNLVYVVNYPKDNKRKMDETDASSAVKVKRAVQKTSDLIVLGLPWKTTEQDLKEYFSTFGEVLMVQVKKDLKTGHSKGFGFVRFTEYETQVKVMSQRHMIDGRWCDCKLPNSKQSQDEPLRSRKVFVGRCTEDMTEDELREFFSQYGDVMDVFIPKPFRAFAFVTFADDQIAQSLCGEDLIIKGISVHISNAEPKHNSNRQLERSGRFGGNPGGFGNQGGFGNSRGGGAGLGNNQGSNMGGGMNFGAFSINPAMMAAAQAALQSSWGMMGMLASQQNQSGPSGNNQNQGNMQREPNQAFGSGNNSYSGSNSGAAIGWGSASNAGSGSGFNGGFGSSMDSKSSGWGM
UniProt Q92804: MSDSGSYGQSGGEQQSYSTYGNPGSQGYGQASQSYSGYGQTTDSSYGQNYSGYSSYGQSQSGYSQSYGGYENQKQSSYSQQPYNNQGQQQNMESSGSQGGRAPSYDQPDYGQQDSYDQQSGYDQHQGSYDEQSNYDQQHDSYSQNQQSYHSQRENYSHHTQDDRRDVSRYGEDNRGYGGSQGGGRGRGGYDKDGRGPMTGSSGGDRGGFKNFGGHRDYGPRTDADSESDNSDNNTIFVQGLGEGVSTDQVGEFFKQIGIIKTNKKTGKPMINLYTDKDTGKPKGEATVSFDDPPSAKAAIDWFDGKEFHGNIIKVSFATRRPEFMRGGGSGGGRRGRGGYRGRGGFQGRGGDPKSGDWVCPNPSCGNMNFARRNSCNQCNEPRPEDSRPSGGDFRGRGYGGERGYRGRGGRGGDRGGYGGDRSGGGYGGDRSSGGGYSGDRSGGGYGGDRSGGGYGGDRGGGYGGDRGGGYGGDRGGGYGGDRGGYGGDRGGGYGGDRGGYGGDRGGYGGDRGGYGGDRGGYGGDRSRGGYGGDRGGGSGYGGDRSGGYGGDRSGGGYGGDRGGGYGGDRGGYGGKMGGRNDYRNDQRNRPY
UniProt P55854, whole entry, looked up: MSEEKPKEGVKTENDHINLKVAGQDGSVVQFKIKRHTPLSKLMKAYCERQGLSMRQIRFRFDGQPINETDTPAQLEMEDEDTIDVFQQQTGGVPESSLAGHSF
UniProt P49888: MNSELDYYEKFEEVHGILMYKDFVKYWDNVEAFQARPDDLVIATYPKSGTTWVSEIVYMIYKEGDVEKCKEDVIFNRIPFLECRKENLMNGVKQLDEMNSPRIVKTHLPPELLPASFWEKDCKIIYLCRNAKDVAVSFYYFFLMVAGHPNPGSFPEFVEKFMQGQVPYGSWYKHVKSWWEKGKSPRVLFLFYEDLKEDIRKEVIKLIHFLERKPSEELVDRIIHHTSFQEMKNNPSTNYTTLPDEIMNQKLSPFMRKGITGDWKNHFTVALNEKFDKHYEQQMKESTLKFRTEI
UniProt O15056: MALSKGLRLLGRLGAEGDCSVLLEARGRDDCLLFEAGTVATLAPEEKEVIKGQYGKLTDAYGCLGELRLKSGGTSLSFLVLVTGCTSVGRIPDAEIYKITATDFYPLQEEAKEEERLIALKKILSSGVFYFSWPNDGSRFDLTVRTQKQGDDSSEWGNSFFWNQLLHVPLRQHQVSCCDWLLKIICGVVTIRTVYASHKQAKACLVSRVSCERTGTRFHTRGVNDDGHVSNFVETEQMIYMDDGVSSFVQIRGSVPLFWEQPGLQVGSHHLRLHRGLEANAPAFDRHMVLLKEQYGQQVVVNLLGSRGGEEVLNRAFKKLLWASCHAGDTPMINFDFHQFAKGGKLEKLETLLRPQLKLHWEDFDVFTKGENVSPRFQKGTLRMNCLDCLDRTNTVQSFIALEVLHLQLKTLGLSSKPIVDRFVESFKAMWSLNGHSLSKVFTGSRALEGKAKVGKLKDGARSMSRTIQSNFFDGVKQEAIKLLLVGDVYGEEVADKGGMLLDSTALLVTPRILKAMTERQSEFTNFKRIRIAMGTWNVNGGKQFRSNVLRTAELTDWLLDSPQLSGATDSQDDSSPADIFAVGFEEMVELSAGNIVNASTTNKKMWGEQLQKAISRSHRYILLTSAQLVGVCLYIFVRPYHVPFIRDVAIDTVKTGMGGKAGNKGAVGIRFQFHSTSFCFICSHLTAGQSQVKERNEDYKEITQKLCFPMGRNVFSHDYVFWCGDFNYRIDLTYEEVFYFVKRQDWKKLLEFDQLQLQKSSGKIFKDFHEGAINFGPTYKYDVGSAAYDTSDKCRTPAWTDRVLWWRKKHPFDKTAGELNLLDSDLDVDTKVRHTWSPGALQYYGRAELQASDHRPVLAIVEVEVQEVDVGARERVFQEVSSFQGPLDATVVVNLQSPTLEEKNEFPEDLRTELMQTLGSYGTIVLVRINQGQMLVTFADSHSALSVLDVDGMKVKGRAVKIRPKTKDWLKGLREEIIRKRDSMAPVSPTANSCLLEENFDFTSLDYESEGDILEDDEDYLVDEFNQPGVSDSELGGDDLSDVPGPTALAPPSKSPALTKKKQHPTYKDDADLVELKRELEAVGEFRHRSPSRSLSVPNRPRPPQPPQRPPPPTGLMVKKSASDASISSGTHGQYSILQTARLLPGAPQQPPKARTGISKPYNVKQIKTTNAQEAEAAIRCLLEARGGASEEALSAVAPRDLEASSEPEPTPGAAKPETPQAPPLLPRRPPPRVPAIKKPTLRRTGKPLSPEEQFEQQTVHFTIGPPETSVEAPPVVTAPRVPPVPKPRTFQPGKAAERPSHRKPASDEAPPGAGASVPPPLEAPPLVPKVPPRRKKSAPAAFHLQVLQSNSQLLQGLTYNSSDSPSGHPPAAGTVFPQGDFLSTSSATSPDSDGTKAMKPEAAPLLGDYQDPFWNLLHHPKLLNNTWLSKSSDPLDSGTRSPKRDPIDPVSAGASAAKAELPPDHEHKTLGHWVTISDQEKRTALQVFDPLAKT
UniProt Q6NXT6: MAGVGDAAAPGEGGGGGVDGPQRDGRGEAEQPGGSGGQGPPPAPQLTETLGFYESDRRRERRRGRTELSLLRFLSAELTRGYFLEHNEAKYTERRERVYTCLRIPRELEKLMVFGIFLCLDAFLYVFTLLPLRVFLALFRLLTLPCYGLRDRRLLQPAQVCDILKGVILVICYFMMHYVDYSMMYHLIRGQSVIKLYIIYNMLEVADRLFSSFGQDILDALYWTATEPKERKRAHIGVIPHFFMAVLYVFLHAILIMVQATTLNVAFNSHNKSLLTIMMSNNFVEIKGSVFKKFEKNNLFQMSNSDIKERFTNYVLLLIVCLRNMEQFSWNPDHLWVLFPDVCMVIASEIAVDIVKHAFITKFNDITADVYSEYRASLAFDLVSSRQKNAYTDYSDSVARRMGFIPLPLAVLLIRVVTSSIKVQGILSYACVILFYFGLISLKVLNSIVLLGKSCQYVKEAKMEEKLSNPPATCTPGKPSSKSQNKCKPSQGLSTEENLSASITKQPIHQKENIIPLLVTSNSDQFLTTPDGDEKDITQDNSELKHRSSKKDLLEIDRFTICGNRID
UniProt Q9NVG8: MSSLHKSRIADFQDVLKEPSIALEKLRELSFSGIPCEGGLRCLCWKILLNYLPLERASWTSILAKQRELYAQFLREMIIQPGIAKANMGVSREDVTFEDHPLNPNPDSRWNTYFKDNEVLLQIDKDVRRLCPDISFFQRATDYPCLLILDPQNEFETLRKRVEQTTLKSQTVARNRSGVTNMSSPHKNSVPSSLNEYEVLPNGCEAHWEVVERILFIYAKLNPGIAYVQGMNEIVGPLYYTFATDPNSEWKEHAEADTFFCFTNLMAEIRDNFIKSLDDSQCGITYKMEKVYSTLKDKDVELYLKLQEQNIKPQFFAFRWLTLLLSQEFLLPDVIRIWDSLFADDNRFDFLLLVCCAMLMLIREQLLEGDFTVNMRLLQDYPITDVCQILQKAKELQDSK

Tests used:
Assay in all cases: log2 fold change, soluble protein after heating vs DMSO (PISA); higher = thermal stabilisation; K562 cells, 10 uM, 30 min; active = over 0.2 and 3.5 SD of the protein, either way, in both replicates (recomputed)
bafetinib = compound: Cc1ccc(NC(=O)c2ccc(CN3CC[C@H](N(C)C)C3)c(C(F)(F)F)c2)cc1Nc1nccc(-c2cncnc2)n1 [bafetinib]
Method in brief: (§1)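 Quantification of soluble protein used TMTpro 16plex LC-MS/MS, with channel sums equalised. Samples were the supernatant after 21,000xg for 90 min of pooled aliquots from K562 cells (2×10^6 cells/mL) treated with 10 μM compound for 30 min, heated for 3 min over 48°C-58°C, and extracted in PBS with 0.5% NP-40 at 4°C. Values, from duplicates, describe thermal stability against control samples on a log2 fold-change scale.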

[1] = compound: Cc1cccc(CC(=O)N2CCc3c2ccc(-c2cn(C)c4ncnc(N)c24)c3F)n1
Method in brief: as §1

nilotinib = compound: Cc1cn(-c2cc(NC(=O)c3ccc(C)c(Nc4nccc(-c5cccnc5)n4)c3)cc(C(F)(F)F)c2)cn1 [nilotinib]
Method in brief: as §1

[2] = compound: Cc1nc(Nc2n[nH]c3c2CN(C(=O)N[C@H](CN(C)C)c2ccccc2)C3(C)C)c2sccc2n1
Method in brief: as §1

dasatinib = compound: Cc1nc(Nc2ncc(C(=O)Nc3c(C)cccc3Cl)s2)cc(N2CCN(CCO)CC2)n1 [dasatinib]
Method in brief: as §1

[3] = compound: Cc1ncc(-c2ccnc(Nc3ccc(S(C)(=O)=O)cc3)n2)n1C(C)C
Method in brief: as §1

[4] = compound: Cn1cc(-c2ccc3c(c2)CCN3C(=O)Cc2cccc(C(F)(F)F)c2)c2c(N)ncnc21
Method in brief: as §1

[5] = compound: Cn1cc(-c2ccc3nnc(C(F)(F)c4ccc5ncccc5c4)n3n2)cn1
Method in brief: as §1

tipifarnib = compound: Cn1cncc1[C@@](N)(c1ccc(Cl)cc1)c1ccc2c(c1)c(-c1cccc(Cl)c1)cc(=O)n2C [tipifarnib]
Method in brief: as §1

mubritinib = compound: FC(F)(F)c1ccc(/C=C/c2nc(COc3ccc(CCCCn4ccnn4)cc3)co2)cc1 [mubritinib]
Method in brief: as §1

Measured: log2 fold change

SUPT4H1 (UniProt P63272)
inactive: bafetinib -0.017 | [1] 0.14 | nilotinib 0.018 | [2] -0.035 | dasatinib -0.084 | [3] 0.097 | [4] -0.023 | [5] 0.006 | tipifarnib -0.067 | mubritinib 0.006

STRIP1 (UniProt Q5VSL9)
inactive: bafetinib 0.117 | [1] -0.02 | nilotinib -0.026 | [2] -0.052 | dasatinib -0.091 | [3] 0.009 | [4] -0.014 | [5] -0.016 | tipifarnib -0.095 | mubritinib -0.002

TARS1 (UniProt P26639)
inactive: bafetinib -0.024 | [1] 0.097 | nilotinib -0.006 | [2] -0.028 | dasatinib -0.065 | [3] -0.038 | [4] 0.062 | [5] 0.024 | tipifarnib -0.095 | mubritinib 0.078

TACC3 (UniProt Q9Y6A5)
inactive: bafetinib -0.049 | [1] -0.009 | nilotinib 0.019 | [2] -0.01 | dasatinib 0.032 | [3] 0.015 | [4] 0.008 | [5] -0.008 | tipifarnib -0.029 | mubritinib 0.03

TAF9 (UniProt Q16594)
inactive: bafetinib -0.076 | [1] -0.026 | nilotinib 0.061 | [2] -0.031 | dasatinib 0.146 | [3] -0.086 | [4] -0.12 | [5] -0.011 | tipifarnib 0.077 | mubritinib -0.005

SURF4 (UniProt O15260)
inactive: bafetinib 0.01 | [1] -0.001 | nilotinib -0.008 | [2] 0.023 | dasatinib -0.003 | [3] -0.009 | [4] 0.006 | [5] 0.057 | tipifarnib 0.048 | mubritinib 0.015

SUPV3L1 (UniProt Q8IYB8)
inactive: bafetinib -0.043 | [1] -0.017 | nilotinib -0.036 | [2] -0.032 | dasatinib 0.002 | [3] 0 | [4] -0.054 | [5] -0.059 | tipifarnib 0.036 | mubritinib -0.048

SUMO2 (UniProt P61956)
inactive: bafetinib -0.127 | [1] -0.023 | nilotinib 0.127 | [2] -0.027 | dasatinib 0.064 | [3] 0.004 | [4] -0.139 | [5] -0.039 | tipifarnib 0.038 | mubritinib 0.07

TACC2 (UniProt O95359)
inactive: bafetinib -0.044 | [1] 0.011 | nilotinib 0.027 | [2] 0.073 | dasatinib 0.059 | [3] 0.008 | [4] -0.001 | [5] -0.003 | tipifarnib 0.029 | mubritinib -0.006

TAX1BP1 (UniProt Q86VP1)
inactive: bafetinib 0.011 | [1] -0.095 | nilotinib -0.086 | [2] 0.011 | dasatinib -0.024 | [3] 0.047 | [4] -0.068 | [5] 0.027 | tipifarnib 0.092 | mubritinib 0.045

STXBP2 isoform 3 (UniProt Q15833)
inactive: bafetinib 0.088 | [1] 0.096 | nilotinib -0.099 | [2] -0.147 | dasatinib -0.131 | [3] -0.014 | [4] 0.073 | [5] 0.086 | tipifarnib -0.086 | mubritinib 0.164

TAL1 (UniProt P17542)
inactive: bafetinib -0.037 | [1] -0.062 | nilotinib -0.024 | [2] 0.023 | dasatinib -0.042 | [3] -0.053 | [4] 0.019 | [5] 0.01 | tipifarnib 0.018 | mubritinib -0.005

TANGO2 isoform 4 (UniProt Q6ICL3)
inactive: bafetinib -0.124 | [1] 0.016 | nilotinib -0.026 | [2] -0.004 | dasatinib -0.025 | [3] -0.052 | [4] 0.074 | [5] 0.023 | tipifarnib 0.009 | mubritinib 0.07

STXBP3 (UniProt O00186)
inactive: bafetinib 0.018 | [1] 0.096 | nilotinib -0.107 | [2] -0.192 | dasatinib -0.155 | [3] 0.008 | [4] 0.044 | [5] -0.029 | tipifarnib -0.106 | mubritinib 0.028

STX17 (UniProt P56962)
inactive: bafetinib -0.049 | [1] -0.028 | nilotinib 0.028 | [2] -0.057 | dasatinib -0.027 | [3] -0.051 | [4] 0.071 | [5] 0.002 | tipifarnib -0.012 | mubritinib 0.074

STT3A (UniProt P46977)
inactive: bafetinib -0.036 | [1] 0.024 | nilotinib -0.046 | [2] 0.049 | dasatinib 0.015 | [3] -0.035 | [4] -0.074 | [5] 0.027 | tipifarnib 0.022 | mubritinib -0.021

TACO1 (UniProt Q9BSH4)
inactive: bafetinib 0.131 | [1] -0.116 | nilotinib 0.031 | [2] 0.108 | dasatinib -0.145 | [3] 0.031 | [4] 0.106 | [5] -0.03 | tipifarnib -0.163 | mubritinib -0.137

TARDBP (UniProt Q13148)
inactive: bafetinib 0.04 | [1] 0.067 | nilotinib 0.043 | [2] -0.099 | [3] 0.097 | [4] -0.086 | [5] -0.087 | tipifarnib -0.084 | mubritinib -0.126

TAF15 (UniProt Q92804)
inactive: bafetinib -0.013 | [1] -0.077 | nilotinib -0.014 | [2] 0.041 | dasatinib 0.116 | [3] 0.057 | [4] -0.136 | [5] -0.121 | tipifarnib 0.04 | mubritinib -0.089

SUMO3 isoform 2 (UniProt P55854)
inactive: bafetinib -0.048 | [1] -0.12 | nilotinib 0.056 | [2] -0.022 | dasatinib 0.17 | [3] -0.02 | [4] -0.025 | [5] -0.061 | tipifarnib 0.022 | mubritinib 0.04

STRN3 isoform 2 (UniProt Q13033)
inactive: bafetinib -0.093 | [1] 0.036 | nilotinib 0.019 | [2] -0.013 | [3] 0.02 | [4] -0.062 | tipifarnib 0.021 | mubritinib -0.132

SUCLG2 (UniProt Q96I99)
inactive: bafetinib -0.068 | [1] 0.019 | nilotinib -0.092 | [2] -0.01 | dasatinib -0.049 | [3] -0.023 | [4] 0.046 | [5] 0.065 | tipifarnib -0.014 | mubritinib -0.058

SULT1E1 (UniProt P49888)
inactive: bafetinib -0.109 | [1] -0.079 | nilotinib 0.015 | [2] 0.038 | [3] 0.063

STX10 (UniProt O60499)
inactive: bafetinib -0.119 | [1] -0.042 | nilotinib -0.007 | [2] -0.036 | dasatinib -0.018 | [3] 0.033 | [4] -0.004 | [5] 0.073 | tipifarnib -0.058 | mubritinib 0.123

Fetched one by one from above, two records:
TACC2 (UniProt O95359)
inactive: bafetinib -0.044 | [1] 0.011 | nilotinib 0.027 | [2] 0.073 | dasatinib 0.059 | [3] 0.008 | [4] -0.001 | [5] -0.003 | tipifarnib 0.029 | mubritinib -0.006

SUPT4H1 (UniProt P63272)
inactive: bafetinib -0.017 | [1] 0.14 | nilotinib 0.018 | [2] -0.035 | dasatinib -0.084 | [3] 0.097 | [4] -0.023 | [5] 0.006 | tipifarnib -0.067 | mubritinib 0.006

(next part)

SYNJ2 (UniProt O15056)
inactive: bafetinib -0.201 | [1] 0.003 | nilotinib -0.159 | [2] -0.298 | dasatinib -0.188 | [3] 0.192 | [5] -0.03 | mubritinib 0.315

TAPT1 (UniProt Q6NXT6)
inactive: bafetinib -0.038 | [1] -0.044 | nilotinib 0.004 | [2] -0.012 | dasatinib 0.022 | [3] -0.031 | [4] 0.014 | [5] 0.067 | tipifarnib 0.024 | mubritinib 0.04

TATDN3 isoform 3 (UniProt Q17R31)
inactive: bafetinib -0.051 | [1] 0.016 | nilotinib -0.01 | [2] 0.009 | dasatinib -0.022 | [3] 0.035 | [4] 0.049 | [5] -0.021 | tipifarnib 0.083 | mubritinib 0.039

TBC1D13 (UniProt Q9NVG8)
inactive: bafetinib -0.041 | [1] -0.029 | nilotinib -0.018 | [2] 0.013 | dasatinib 0.01 | [3] -0.009 | [4] 0.028 | [5] 0.044 | tipifarnib -0.001 | mubritinib 0.061
